Assay results from the supplement of paper PMC12425257.
Where “and” joins values, the source holds several entries; their conditions need not be identical. Equal values may be shown once. ± gives the standard deviation of the averaged measurements. The list shows a part of the results.

test system: Madurella mycetomatis MM55; experiment: metabolic activity (growth) relative to DMSO growth control; higher = more fungal growth; conditions: 10 µM

| SMILES | metabolic activity |
| --- | --- |
| CN(C)c1cc2c(Nc3ccc4c(cnn4Cc4ccccc4)c3)ncnc2cn1 | 78.5 ± 1.9% |
| Cc1cnc(Nc2ccc(F)cc2Cl)nc1-c1c[nH]c(C(=O)N[C@H](CO)c2cccc(Cl)c2)c1 [Vertex 11e] | 101 ± 36% |
| COc1cc(OC)cc(-c2cc3cnc(N)nc3nc2NC(=O)NC(C)(C)C)c1 | 97.6 ± 6.9% |
| CCOc1ccc2c(-c3ccnc(Nc4cc(OC)cc(C(F)(F)F)c4)n3)cnn2n1 | 121 ± 14% |
| CCn1c(-c2nonc2N)nc2c(C#CC(C)(C)O)nc(OCCNC)cc21.Cl | 94.9 ± 8% |
| CCOc1ccc2c(-c3ccnc(Nc4cccc(C(F)(F)F)c4)n3)cnn2n1 | 112 ± 29% |
| NC[C@@H](NC(=O)c1ccc(-c2cccnc2)cc1)c1ccccc1 | 106 ± 19% |
| O=C(O)/C=C/C(=O)O.OCCCNc1nccc(-c2c(-c3ccc(F)cc3)nn3cc(C(F)(F)F)ccc23)n1 | 84.6 ± 3.8% |
| COc1ccc2nc(-c3cccc(C)n3)nc(Nc3ccncc3)c2c1 | 90.6 ± 20% |
| COC[C@@H](C)N[C@H]1CC[C@H](Nc2cc(-c3cccc(NCC4(C#N)CCOCC4)n3)c(Cl)cn2)CC1 | 93.2 ± 5.7% |
| Cc1cc(-c2cnc(N)c3c(-c4ccc5scnc5c4)csc23)n(C)n1 | 73.4 ± 50% |
| CNC(=O)c1ccc(C)c(-n2c(C)cc(OCc3ccc(F)cc3F)c(Br)c2=O)c1 | 98.9 ± 25% |
| COc1cc(-c2cncc(-c3cnn(C4CCNCC4)c3)c2)cc(OC)c1OC | 117 ± 22% |
| O=C(Nc1n[nH]c2nc(-c3ccccc3)c(Br)cc12)C1CC1 | 134 ± 3.9% |
| CC(=O)c1cccc(NC(=O)NC2CCN(c3ccnc(Nc4ccc(F)cc4)n3)C2)c1 (configuration not stated) | 94.4 ± 1.1% |
| CNC(=O)CN1CCC(C(=O)Nc2ncc(SCc3ncc(C(C)(C)C)o3)s2)CC1 | 107 ± 8.2% |
| Cc1cccc(CC(=O)Nc2ccc(-c3csc4ccnc(N)c34)cc2)c1 | 94 ± 12% |
| CCOc1cc(F)c(Cn2nc(-c3ncc(OC)c(Nc4ccncc4)n3)c(C)c2C2CC2)c(F)c1 | 125 ± 7.4% |
| O=C1Nc2ccccc2SC1=Cc1c[nH]c2cc(OCCN3CCOCC3)ccc12 | 107 ± 7.3% |

| SMILES | metabolic activity |
| --- | --- |
| CCc1c(-c2nonc2N)nc2c(C#Cc3ccccc3)ccc(N3C[C@H](N)[C@@H](O)C3)n12 | 92.9 ± 20% |
| Cl.O=C1Nc2ccc(-c3cccnc3)cc2C1=Cc1cc(Br)c(O)c(Br)c1 | 99.7 ± 13% |
| NS(=O)(=O)c1ccc(Nc2ncc(-c3ccccc3)o2)cc1 | 102 ± 16% |
| Cc1ccc(-n2c(=O)c3cnc(Nc4ccc(N5CCN(C)CC5)cc4)nc3n3ccnc23)c(Cl)c1.O=C(O)C(F)(F)F.O=C(O)C(F)(F)F | 83.1 ± 33% |
| CCCS(=O)(=O)Nc1ccc(F)c(C(=O)c2c[nH]c3ncc(Cl)cc23)c1F | 78.8 ± 26% |
| C[C@@H]1CCNC(=O)c2cc3ccc(C(=O)Nc4nc5ccccc5n4CCCN(C)C)cc3n21 | 101 ± 10% |
| CC(C)(C)OC(=O)NCCCNS(=O)(=O)c1ccc(Nc2ncc3c(n2)Nc2ccsc2C(=O)N3)cc1 | 106 ± 24% |
| COC(=O)c1c(-c2ccccc2)c2cc(OC)ccc2c(=O)n1Cc1ccccc1 | 128 ± 11% |
| Cc1cc2c(N)n[nH]c2cc1-c1cnn(Cc2ccccc2)c1 | 97.6 ± 6.1% |
| CC(C)(C)S(=O)(=O)c1ccc2nccc(Nc3n[nH]c4ccc(F)cc34)c2c1 | 107 ± 3.3% |
| CN(C)CC(=O)N1CCC(C(=O)Nc2ncc(SCc3ncc(C(C)(C)C)o3)s2)CC1 | 104 ± 5.1% |
| C[C@@H]1CN(c2cc(-c3n[nH]c4ccc(OC5(C)CC5)cc34)ncn2)C[C@H](C)O1 | 88% and 103% |
| NC(=O)c1cccnc1COc1cc(-c2ccc(N3CCOCC3)nc2)cc2ncccc12 | 95.5 ± 34% |
| Cc1ccc(CNC(=O)N2CCC[C@]3(CCN(Cc4ccc(Cl)c(Cl)c4)C3)C2)cc1 | 150 ± 3.5% |
| COC(=O)Nc1nc2ccc(Oc3ccc(NC(=O)Nc4cc(C(F)(F)F)ccc4F)cc3)cc2s1.Cl | 110 ± 20% |
| CNc1nc(Nc2ccc(C(=O)N3CCOCC3)cc2OC)nc2[nH]cc(Cl)c12 | 101 ± 15% |
| O=C(O)C(F)(F)F.O=c1c2cnc(Nc3ccc(N4CCCCC4)cc3)nc2n2ccnc2n1-c1ccccc1Cl | 93.8 ± 24% |
| COc1cc2ncnc(Nc3cccc(Cl)c3F)c2cc1O[C@H]1CC[C@H]([C@@H]2NCCNC2=O)CC1 | 106 ± 21% |

Given as comma-separated lines: part of the list above
SMILES,metabolic activity
Cl.O=C1Nc2ccc(-c3cccnc3)cc2C1=Cc1cc(Br)c(O)c(Br)c1,99.7 ± 13%
NS(=O)(=O)c1ccc(Nc2ncc(-c3ccccc3)o2)cc1,102 ± 16%
Cc1ccc(-n2c(=O)c3cnc(Nc4ccc(N5CCN(C)CC5)cc4)nc3n3ccnc23)c(Cl)c1.O=C(O)C(F)(F)F.O=C(O)C(F)(F)F,83.1 ± 33%
